Reference: PubChem BioAssay AID1671195 (Yale University, 2021)

Screen: 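Genes whose knockdown alters LDL uptake in liver cancer cells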 (primary screen)
System: human Huh7 hepatoma cells
Reagents: siRNA pool against human genes, 18 nM
Duration: about 2 to 2.5 days of knockdown, then 8 h LDL uptake
Treatment: DiI-labelled LDL at 30 µg/ml for 8 h, in lipoprotein-deficient serum medium
Measurement: 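Per-cell DiI-LDL intensity by automated imaging; well means scaled to the plate median and given as a robust z-score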
Direction: robust z-score: higher = more LDL uptake after knockdown
Hit rule: 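a gene counts as active if at least two replicate z-scores exceed ±2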
The deposit covers about 22,000 reagents; this is a random part of them. Of all reagents, about 1,510 (6.9%) are marked active. 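Active includes knockdowns raising or lowering LDL uptake; positive z-scores mean more uptake, negative mean less.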

| target gene | robust z-score, replicate 1 | robust z-score, replicate 2 | robust z-score, replicate 3 | Outcome |
| --- | --- | --- | --- | --- |
| RXRB | -0.442 | -1.29 | -1.72 | inactive |
| KRTAP4-11 | 0.389 | 0.0385 | -0.275 | inactive |
| OARD1 | 1.52 | 1.78 | 1.51 | inactive |
| IGF2BP3 | 0.968 | 0.436 | 0.267 | inactive |
| SPINT4 | -0.797 | -0.374 | -0.343 | inactive |
| RNF185 | -0.602 | -0.659 | -0.427 | inactive |
| IL17RD | -0.568 | -1.01 | -0.112 | inactive |
| LURAP1L | 1.26 | 1.55 | 1.45 | inactive |
| PTRH1 | 0.86 | 0.705 | 0.982 | inactive |
| PXK | -1.98 | -1.68 | -2.13 | active |
| GTPBP6 | 1.7 | 0.179 | 2.17 | inactive |
| CTPS1 | -1.13 | -0.987 | -0.577 | inactive |
| NTSR2 | -0.821 | -0.92 | -0.655 | inactive |
| UBE2E2 | 0.3 | 0.51 | -0.057 | inactive |
| NEGR1 | -0.23 | 1.06 | 0.87 | inactive |
| SGK1 | 1 | 0.551 | 0.595 | inactive |
| DPY19L3-DT | -0.912 | -0.442 | -0.732 | inactive |
| RAP1GAP | 0.683 | 0.0791 | 1.27 | inactive |
| SRSF4 | -1.34 | -1.48 | -1.24 | inactive |
| FBXO30 | -1.39 | -1.31 | -1.36 | inactive |
| ZNF222 | -0.531 | -0.357 | -0.656 | inactive |
| SHC3 | 0.138 | 2.47 | -1.07 | inactive |
| VCF2 | -0.62 | -0.644 | -0.389 | inactive |
| SLC44A3 | 0.604 | -0.0197 | -0.587 | inactive |
| OSBPL11 | -1.34 | -0.764 | -1.06 | inactive |
| NRBP1 | 0.207 | -0.122 | -0.132 | inactive |
| RPL7L1P8 | 0.542 | 1.07 | 0.53 | inactive |
| CCNO | 0.0862 | 1.38 | 1.75 | inactive |
| TBL3 | -0.138 | -0.566 | -0.861 | inactive |
| GPR55 | 5.79 | 4.37 | 5.01 | active |
| VIP | 0.0338 | -0.255 | 0.334 | inactive |
| CD244 | -0.186 | -1.13 | -0.5 | inactive |
| COXFA4L2 | -1.04 | 0.491 | -0.684 | inactive |
| FOXB1 | 2.22 | 2.31 | 3.63 | active |
| DHRS7C | -0.44 | -0.66 | -0.374 | inactive |
| C11orf71 | -0.478 | -0.432 | -0.307 | inactive |
| LBH | -1.24 | -2.05 | -1.14 | inactive |
| MRPL15 | 0.966 | -0.339 | 0.976 | inactive |
| LOC400790 (retired record) | -1.38 | -1.34 | -1.84 | inactive |
| CDC25B | 0.535 | 0.832 | 0.389 | inactive |
| STUB1 | 1.81 | 1.67 | 1.59 | inactive |
| PFDN6 | -2.18 | -1.07 | -1.88 | inactive |
| RPS3 | -1.62 | -0.892 | 0.353 | inactive |
| PHC1 | 1.5 | 0.526 | 1.05 | inactive |
| AFG3L1P | -0.94 | -0.548 | -0.467 | inactive |
| RASL10B | 0.265 | -0.824 | 1.07 | inactive |

3 successive entries from above, quoted:
| target gene | robust z-score, replicate 1 | robust z-score, replicate 2 | robust z-score, replicate 3 | Outcome |
| --- | --- | --- | --- | --- |
| CD244 | -0.186 | -1.13 | -0.5 | inactive |
| COXFA4L2 | -1.04 | 0.491 | -0.684 | inactive |
| FOXB1 | 2.22 | 2.31 | 3.63 | active |
